The values that follow come from publication PMC9402307.

Sequences of proteins named here, by UniProt entry; tags and fusion partners are left off. A change or cut given only in a name is not applied to a line headed by its entry.
UniProt O95835: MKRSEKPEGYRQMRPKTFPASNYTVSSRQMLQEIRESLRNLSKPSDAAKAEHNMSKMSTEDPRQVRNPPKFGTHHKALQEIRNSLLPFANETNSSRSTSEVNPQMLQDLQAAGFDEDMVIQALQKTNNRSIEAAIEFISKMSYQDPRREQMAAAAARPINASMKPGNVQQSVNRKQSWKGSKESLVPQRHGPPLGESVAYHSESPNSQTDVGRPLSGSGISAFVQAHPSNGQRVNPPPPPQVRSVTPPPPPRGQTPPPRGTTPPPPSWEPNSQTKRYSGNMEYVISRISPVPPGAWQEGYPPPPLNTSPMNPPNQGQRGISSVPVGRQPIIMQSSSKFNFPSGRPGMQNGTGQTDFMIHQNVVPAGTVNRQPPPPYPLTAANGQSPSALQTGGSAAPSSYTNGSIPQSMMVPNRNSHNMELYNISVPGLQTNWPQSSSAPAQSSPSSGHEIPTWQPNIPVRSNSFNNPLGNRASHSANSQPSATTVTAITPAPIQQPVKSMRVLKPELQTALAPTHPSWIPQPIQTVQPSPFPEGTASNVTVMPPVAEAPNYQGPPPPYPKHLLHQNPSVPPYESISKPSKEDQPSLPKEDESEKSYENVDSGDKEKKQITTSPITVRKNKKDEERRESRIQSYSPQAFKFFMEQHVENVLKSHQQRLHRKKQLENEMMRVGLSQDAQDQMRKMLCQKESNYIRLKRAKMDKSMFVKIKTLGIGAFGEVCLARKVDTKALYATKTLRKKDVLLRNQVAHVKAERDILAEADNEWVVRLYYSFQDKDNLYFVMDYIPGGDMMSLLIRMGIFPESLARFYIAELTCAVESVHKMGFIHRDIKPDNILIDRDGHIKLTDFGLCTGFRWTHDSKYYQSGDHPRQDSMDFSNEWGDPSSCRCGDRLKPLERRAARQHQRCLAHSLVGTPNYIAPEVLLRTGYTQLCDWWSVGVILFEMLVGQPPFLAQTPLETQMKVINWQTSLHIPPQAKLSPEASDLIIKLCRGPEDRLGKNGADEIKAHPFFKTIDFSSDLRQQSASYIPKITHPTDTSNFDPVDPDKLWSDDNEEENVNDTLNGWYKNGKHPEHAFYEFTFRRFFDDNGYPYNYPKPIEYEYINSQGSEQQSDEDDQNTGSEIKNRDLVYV

The experiment has as its target Large tumor suppressor kinase 1 (human (endogenous in MDA-MB-231 and MDA-MB-453)) (UniProt O95835). As to the kind of experiment: co-IP; lysates of MDA-MB-231 and MDA-MB-453 cells, precleared with protein A/G magnetic beads; immunoprecipitation with anti-LATS1 antibody at 4°C overnight, protein A/G magnetic beads, Western blot for TRIM65. A general note: In western blotting, separated proteins are transferred to a membrane and probed.

Results are given in words; binding and its absence hold for the method and conditions named. In cells and extracts the contact can be indirect. A result given as binding can be weak or reduced; the word gives no strength.

B1: Tripartite motif containing 65 (protein, UniProt Q6PJ69 1-517)
chain: MAAQLLEEKLTCAICLGLYQDPVTLPCGHNFCGACIRDWWDRCGKACPECREPFPDGAELRRNVALSGVLEVVRAGPARDPGPDPGPGPDPAARCPRHGRPLELFCRTEGRCVCSVCTVRECRLHERALLDAERLKREAQLRASLEVTQQQATQAEGQLLELRKQSSQIQNSACILASWVSGKFSSLLQALEIQHTTALRSIEVAKTQALAQARDEEQRLRVHLEAVARHGCRIRELLEQVDEQTFLQESQLLQPPGPLGPLTPLQWDEDQQLGDLKQLLSRLCGLLLEEGSHPGAPAKPVDLAPVEAPGPLAPVPSTVCPLRRKLWQNYRNLTFDPVSANRHFYLSRQDQQVKHCRQSRGPGGPGSFELWQVQCAQSFQAGHHYWEVRASDHSVTLGVSYPQLPRCRLGPHTDNIGRGPCSWGLCVQEDSLQAWHNGEAQRLPGVSGRLLGMDLDLASGCLTFYSLEPQTQPLYTFHALFNQPLTPVFWLLEGRTLTLCHQPGAVFPLGPQEEVLS
Consider B1, for which the binding result was “binds”.
